These are yes or no findings as the source states them, for the method shown. For some assays here: Binding seen in cells or lysates may run through a third protein. Some binding calls cover weakened binding; strength is not graded here.
Experiments:
[1] = biological target: GST-tagged ERβ (oestrogen receptor beta coupled to glutathion-S-transferase) (human) (UniProt Q92731); experiment: pull-down; GST-ERβ or GST from E. coli lysate (0.8 µg/µl total protein in GST buffer: 10 mM Tris-HCl pH 8, 50 mM NaCl, 5 % glycerol, 1 mM DTT) bound to Glutathione Sepharose, 350 ng recombinant hTDG added, 4 °C, 2 h; washes with 80 mM NaCl and once 150-300 mM NaCl; western blot with anti-GST and anti-TDG; four experiments quantified; only the binder purified
[2] = biological target: GST-tagged ERβ (oestrogen receptor beta coupled to glutathion-S-transferase) (human) (UniProt Q92731); experiment: far-Western, overlay or dot blot; purified GST-ERβ resolved by SDS-PAGE, on nitrocellulose, denatured with 6 M guanidine-HCl and renatured, probed overnight at 4 °C with 7-9 µg recombinant TDG in 20 mM Tris-HCl pH 8, 50 mM NaCl, 10 % glycerol, 0.1 % Tween-20, 2 % skim milk, 1 mM DTT; detected with anti-TDG; both purified

Protein sequences, listed by entry. Tags and fused reporters are not part of them.
UniProt Q92731: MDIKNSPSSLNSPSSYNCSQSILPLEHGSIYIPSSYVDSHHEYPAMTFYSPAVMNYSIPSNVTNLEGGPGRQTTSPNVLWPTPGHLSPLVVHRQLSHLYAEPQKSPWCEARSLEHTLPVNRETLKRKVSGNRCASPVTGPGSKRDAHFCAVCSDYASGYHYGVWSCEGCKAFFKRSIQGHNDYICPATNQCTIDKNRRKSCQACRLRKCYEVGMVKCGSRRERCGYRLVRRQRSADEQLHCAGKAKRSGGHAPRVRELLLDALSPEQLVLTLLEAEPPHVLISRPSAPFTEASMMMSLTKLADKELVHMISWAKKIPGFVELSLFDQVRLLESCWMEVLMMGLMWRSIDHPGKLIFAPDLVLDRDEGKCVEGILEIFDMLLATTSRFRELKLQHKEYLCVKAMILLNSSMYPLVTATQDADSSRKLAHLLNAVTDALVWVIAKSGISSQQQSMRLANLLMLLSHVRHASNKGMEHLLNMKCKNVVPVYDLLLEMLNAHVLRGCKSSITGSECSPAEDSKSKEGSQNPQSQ
UniProt Q13569: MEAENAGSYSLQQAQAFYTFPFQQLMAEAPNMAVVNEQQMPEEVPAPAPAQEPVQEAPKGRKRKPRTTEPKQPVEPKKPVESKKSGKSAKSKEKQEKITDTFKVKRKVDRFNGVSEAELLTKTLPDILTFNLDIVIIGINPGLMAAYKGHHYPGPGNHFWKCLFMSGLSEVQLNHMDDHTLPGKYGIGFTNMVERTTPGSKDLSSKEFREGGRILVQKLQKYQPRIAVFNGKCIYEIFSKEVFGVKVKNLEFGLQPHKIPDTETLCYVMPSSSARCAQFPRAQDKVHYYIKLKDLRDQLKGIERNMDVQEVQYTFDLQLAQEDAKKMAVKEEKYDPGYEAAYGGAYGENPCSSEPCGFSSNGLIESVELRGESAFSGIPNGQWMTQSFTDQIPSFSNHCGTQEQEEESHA

- binding [1]: binds
- binding [2]: binds
Substance: recombinant thymine DNA glycosylase (hTDG) (from UniProt Q13569 1-410) (enzyme)

From publication PMC4756533
